Data: the supplement of paper PMC8728848
Some of the results follow.

Experiments:
Assay in all cases: glycan array binding signal (z-score within array); higher = stronger binding
Settings in all cases: glycan notation: IUPAC condensed, linker removed
[1] = molecular target: Gal(b1-3)GalNAc
How it was run: (§1)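 From the Consortium for Functional Glycomics database, 3228 arrays were curated, keeping only those whose protein sequence was available. Binding is given as a within-array Z-score averaged across arrays sharing a protein sequence and across linkers. Negative Z-scores can be read as non-binding.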

[2] = molecular target: Gal(b1-3)GalNAc(b1-3)Gal(a1-4)Gal(b1-4)Glc
How it was run: as §1

[3] = molecular target: Gal(b1-3)GalNAc(b1-3)Gal(b1-4)Glc
How it was run: as §1

[4] = molecular target: Gal(b1-3)GalNAc(b1-3)Gal(b1-4)GlcNAc
How it was run: as §1

[5] = molecular target: Gal(b1-3)GalNAc(b1-4)Gal(b1-4)Glc
How it was run: as §1

[6] = molecular target: Gal(b1-3)GalNAc(b1-4)[Neu5Ac(a2-3)]Gal(b1-4)Glc
How it was run: as §1

[7] = molecular target: Gal(b1-3)GlcNAc(b1-3)Gal(b1-3)GlcNAc
How it was run: as §1

[8] = molecular target: Gal(b1-3)[Fuc(a1-4)]GlcNAc
How it was run: as §1

[9] = molecular target: Gal(b1-3)[Fuc(a1-4)]GlcNAc(b1-3)Gal(b1-3)[Fuc(a1-4)]GlcNAc
How it was run: as §1

[10] = molecular target: Gal(b1-3)[Fuc(a1-4)]GlcNAc(b1-3)Gal(b1-4)GlcNAc
How it was run: as §1

[11] = molecular target: Gal(b1-3)[Fuc(a1-4)]GlcNAc(b1-3)Gal(b1-4)[Fuc(a1-3)]GlcNAc
How it was run: as §1

[12] = molecular target: Gal(b1-3)[GlcNAc(b1-6)]GalNAc
How it was run: as §1

[13] = molecular target: Gal(b1-3)[GlcNAc(b1-6)]GlcNAc
How it was run: as §1

[14] = molecular target: Gal(b1-3)[Neu5Ac(a2-6)]GalNAc
How it was run: as §1

[15] = molecular target: Gal(b1-3)[Neu5Ac(a2-6)]GlcNAc
How it was run: as §1

[16] = molecular target: Gal(b1-3)[Neu5Ac(a2-6)]GlcNAc(a1-4)Gal(b1-4)Glc
How it was run: as §1

[17] = molecular target: Gal(b1-3)[Neu5Ac(b2-6)]GlcNAc
How it was run: as §1

[18] = molecular target: Gal(b1-4)GalNAc(a1-3)[Fuc(a1-2)]Gal(b1-4)GlcNAc
How it was run: as §1

[19] = molecular target: Gal(b1-4)GalNAc(b1-3)[Fuc(a1-2)]Gal(b1-4)GlcNAc
How it was run: as §1

[20] = molecular target: Gal(b1-4)Glc
How it was run: as §1

[21] = molecular target: Gal(b1-4)Glc6S
How it was run: as §1

[22] = molecular target: Gal(b1-4)GlcNAc
How it was run: as §1

[23] = molecular target: Gal(b1-4)GlcNAc(b1-2)Man(a1-3)[Gal(b1-4)GlcNAc(b1-2)Man(a1-6)]Man(b1-4)GlcNAc(b1-4)GlcNAc
How it was run: as §1

[24] = molecular target: Gal(b1-4)GlcNAc(b1-3)Gal(b1-3)GlcNAc
How it was run: as §1

[25] = molecular target: Gal(b1-4)GlcNAc(b1-3)Gal(b1-4)Glc
How it was run: as §1

[26] = molecular target: Gal(b1-4)GlcNAc(b1-3)Gal(b1-4)GlcNAc
How it was run: as §1

[27] = molecular target: Gal(b1-4)GlcNAc(b1-3)Gal(b1-4)GlcNAc(b1-3)Gal(b1-4)GlcNAc
How it was run: as §1

[28] = molecular target: Gal(b1-4)GlcNAc(b1-3)Gal(b1-4)[Fuc(a1-3)]GlcNAc(b1-3)Gal(b1-4)[Fuc(a1-3)]GlcNAc
How it was run: as §1

[29] = molecular target: Gal(b1-4)GlcNAc(b1-3)GalNAc
How it was run: as §1

[30] = molecular target: Gal(b1-4)GlcNAc(b1-3)[Gal(b1-4)GlcNAc(b1-6)]GalNAc
How it was run: as §1

[31] = molecular target: Gal(b1-4)GlcNAc(b1-6)GalNAc
How it was run: as §1

[32] = molecular target: Gal(b1-4)GlcNAc(b1-6)[Gal(b1-3)]GalNAc
How it was run: as §1

[33] = molecular target: Gal(b1-4)GlcNAc(b1-6)[Gal(b1-3)]GlcNAc
How it was run: as §1

[34] = molecular target: Gal3S(b1-3)GalNAc
How it was run: as §1

[35] = molecular target: Gal3S(b1-3)GlcNAc
How it was run: as §1

[36] = molecular target: Gal3S(b1-3)[Fuc(a1-4)]GlcNAc
How it was run: as §1

[37] = molecular target: Gal3S(b1-4)Glc
How it was run: as §1

[38] = molecular target: Gal3S(b1-4)Glc6S
How it was run: as §1

[39] = molecular target: Gal3S(b1-4)GlcNAc
How it was run: as §1

[40] = molecular target: Gal3S(b1-4)GlcNAc6S
How it was run: as §1

[41] = molecular target: Gal3S6S(b1-4)GlcNAc
How it was run: as §1

[42] = molecular target: Gal3S6S(b1-4)GlcNAc6S
How it was run: as §1

[43] = molecular target: Gal4S(b1-4)GlcNAc
How it was run: as §1

[44] = molecular target: Gal4S6S(b1-4)GlcNAc
How it was run: as §1

[45] = molecular target: Gal6S(b1-4)Glc
How it was run: as §1

[46] = molecular target: Gal6S(b1-4)Glc6S
How it was run: as §1

[47] = molecular target: Gal6S(b1-4)GlcNAc
How it was run: as §1

[48] = molecular target: GalNAc(a1-3)Gal
How it was run: as §1

[49] = molecular target: GalNAc(a1-3)GalNAc
How it was run: as §1

[50] = molecular target: GalNAc(b1-3)Gal(a1-4)Gal(b1-4)GlcNAc
How it was run: as §1

[51] = molecular target: GalNAc(b1-4)GlcNAc
How it was run: as §1

[52] = molecular target: Glc(a1-4)Glc
How it was run: as §1

[53] = molecular target: Glc(a1-6)Glc(a1-6)Glc
How it was run: as §1

[54] = molecular target: Glc(b1-4)Glc
How it was run: as §1

[55] = molecular target: Glc(b1-6)Glc
How it was run: as §1

[56] = molecular target: GlcA(b1-3)Gal
How it was run: as §1

[57] = molecular target: GlcA(b1-6)Gal
How it was run: as §1

[58] = molecular target: GlcNAc(a1-3)Gal(b1-4)GlcNAc
How it was run: as §1

[59] = molecular target: GlcNAc(a1-6)Gal(b1-4)GlcNAc
How it was run: as §1

[60] = molecular target: GlcNAc(b1-2)Gal(b1-3)GlcNAc
How it was run: as §1

[61] = molecular target: GlcNAc(b1-2)Man(a1-3)[GlcNAc(b1-2)Man(a1-6)]Man(b1-4)GlcNAc(b1-4)GlcNAc
How it was run: as §1

[62] = molecular target: GlcNAc(b1-3)Gal
How it was run: as §1

[63] = molecular target: GlcNAc(b1-3)Gal(b1-3)GalNAc
How it was run: as §1

[64] = molecular target: GlcNAc(b1-3)Gal(b1-4)Glc
How it was run: as §1

[65] = molecular target: GlcNAc(b1-3)Gal(b1-4)GlcNAc
How it was run: as §1

[66] = molecular target: GlcNAc(b1-3)Gal(b1-4)GlcNAc(b1-3)Gal(b1-4)GlcNAc
How it was run: as §1

[67] = molecular target: GlcNAc(b1-3)GalNAc
How it was run: as §1

[68] = molecular target: GlcNAc(b1-3)[GlcNAc(b1-4)][GlcNAc(b1-6)]GlcNAc
How it was run: as §1

[69] = molecular target: GlcNAc(b1-3)[GlcNAc(b1-6)]Gal(b1-4)GlcNAc
How it was run: as §1

[70] = molecular target: GlcNAc(b1-3)[GlcNAc(b1-6)]GlcNAc
How it was run: as §1

[71] = molecular target: GlcNAc(b1-4)Gal(b1-4)GlcNAc
How it was run: as §1

[72] = molecular target: GlcNAc(b1-4)GlcNAc(b1-4)GlcNAc
How it was run: as §1

[73] = molecular target: GlcNAc(b1-4)GlcNAc(b1-4)GlcNAc(b1-4)GlcNAc(b1-4)GlcNAc
How it was run: as §1

B1: FBG2 (Homo sapiens), Q9NRD1 (protein)
chain: MDAPHSKAALDSINELPENILLELFTHVPARQLLLNCRLVCSLWRDLIDLMTLWKRKCLREGFITKDWDQPVADWKIFYFLRSLHRNLLRNPCAEEDMFAWQIDFNGGDRWKVESLPGAHGTDFPDPKVKKYFVTSYEMCLKSQLVDLVAEGYWEELLDTFRPDIVVKDWFAARADCGCTYQLKVQLASADYFVLASFEPPPVTIQQWNNATWTEVSYTFSDYPRGVRYILFQHGGRDTQYWAGWYGPRVTNSSIVVSPKMTRNQASSEAQPGQKHGQEEAAQSPYRAVVQIFPPPVTIQQWNNATWTEVSYTFSDYPRGVRYILFQHGGRDTQYWAGWYGPRVTNSSIVVSPKMTRNQASSEAQPGQKHGQEEAAQSPYRAVVQI
glycan array binding signal (z-score) [1]: -0.527
glycan array binding signal (z-score) [2]: 0.174
glycan array binding signal (z-score) [3]: -0.208
glycan array binding signal (z-score) [4]: -0.137
glycan array binding signal (z-score) [5]: -0.441
glycan array binding signal (z-score) [6]: -0.243
glycan array binding signal (z-score) [7]: -0.379
glycan array binding signal (z-score) [8]: -0.568
glycan array binding signal (z-score) [9]: -0.392
glycan array binding signal (z-score) [10]: -0.352
glycan array binding signal (z-score) [11]: -0.265
glycan array binding signal (z-score) [12]: -0.712
glycan array binding signal (z-score) [13]: -0.747
glycan array binding signal (z-score) [14]: -0.611
glycan array binding signal (z-score) [15]: -0.295
glycan array binding signal (z-score) [16]: -0.281
glycan array binding signal (z-score) [17]: 0.699
glycan array binding signal (z-score) [18]: -0.734
glycan array binding signal (z-score) [19]: -0.077
glycan array binding signal (z-score) [20]: -0.46
glycan array binding signal (z-score) [21]: 0.228
glycan array binding signal (z-score) [22]: -0.343
glycan array binding signal (z-score) [23]: -0.069
glycan array binding signal (z-score) [24]: -0.688
glycan array binding signal (z-score) [25]: -0.397
glycan array binding signal (z-score) [26]: -0.538
glycan array binding signal (z-score) [27]: -0.014
glycan array binding signal (z-score) [28]: -0.021
glycan array binding signal (z-score) [29]: -0.278
glycan array binding signal (z-score) [30]: -0.564
glycan array binding signal (z-score) [31]: -0.818
glycan array binding signal (z-score) [32]: -0.633
glycan array binding signal (z-score) [33]: -0.558
glycan array binding signal (z-score) [34]: 0.136
glycan array binding signal (z-score) [35]: -0.075
glycan array binding signal (z-score) [36]: 1.01
glycan array binding signal (z-score) [37]: 1.16
glycan array binding signal (z-score) [38]: 1.95
glycan array binding signal (z-score) [39]: 0.144
glycan array binding signal (z-score) [40]: 2.42
glycan array binding signal (z-score) [41]: 2.1
glycan array binding signal (z-score) [42]: 3.2
glycan array binding signal (z-score) [43]: 0.389
glycan array binding signal (z-score) [44]: 2.35
glycan array binding signal (z-score) [45]: 0.826
glycan array binding signal (z-score) [46]: 2.67
glycan array binding signal (z-score) [47]: 1.2
glycan array binding signal (z-score) [48]: -0.783
glycan array binding signal (z-score) [49]: -0.565
glycan array binding signal (z-score) [50]: -0.357
glycan array binding signal (z-score) [51]: -0.387
glycan array binding signal (z-score) [52]: -0.594
glycan array binding signal (z-score) [53]: -0.091
glycan array binding signal (z-score) [54]: -0.116
glycan array binding signal (z-score) [55]: -0.213
glycan array binding signal (z-score) [56]: 0.042
glycan array binding signal (z-score) [57]: 0.055
glycan array binding signal (z-score) [58]: -0.575
glycan array binding signal (z-score) [59]: -0.895
glycan array binding signal (z-score) [60]: -0.723
glycan array binding signal (z-score) [61]: 0.654
glycan array binding signal (z-score) [62]: -0.443
glycan array binding signal (z-score) [63]: -0.57
glycan array binding signal (z-score) [64]: -0.564
glycan array binding signal (z-score) [65]: -0.035
glycan array binding signal (z-score) [66]: 0.244
glycan array binding signal (z-score) [67]: -0.923
glycan array binding signal (z-score) [68]: 0.103
glycan array binding signal (z-score) [69]: -0.229
glycan array binding signal (z-score) [70]: -0.406
glycan array binding signal (z-score) [71]: -0.843
glycan array binding signal (z-score) [72]: -0.555
glycan array binding signal (z-score) [73]: 0.601
